Reference: patent US20260098096A1
No constants are given. Whether binding was seen depends on the method and setting. A result given as binding can be weak or reduced; the word gives no strength.

Tests used:
[1] = target: CCR8_8588 (human CCR8 with extracellular loop 1 of human CCR5) (human); assay: epitope mapping on transfected cells
[2] = target: CCR8_8885 (human CCR8 with extracellular loop 3 of human CCR5) (human); assay: epitope mapping on transfected cells

B1: 2H8 anti-m/hCCR8 antibody (mouse hybridoma clone, isotype IgG2b) (antibody, V domains shown)
VH: EVQLQQSGPELVKPGASVKMSCKASGYTFTDYNMHWVKQSHGKSLEWIGYVNPNNGGTSYNQKFKGKATLTVNKSSSTAYMELRSLTSEDSAVYYCARWVLRRNFAYWGQGTLVTVSA
VL: DIVMTQSHKFMSTSVGDRVSITCKASQDVNTAVAWYQQKPGQSPKLLIYWASTRHTGVPDRFTGSGSGTDYTLTISSVQAEDLALYYCQQHYRNPYTFGGGTKLEIK
For B1, which binding [1] is on record?
The binding was “binds”.

What about the binding [2] of the same binder?
Its binding is “binds”.
